No constants are given. Whether binding was seen depends on the method and setting. Binding calls can cover weak binding; strength is not graded here. Where a sequence is shown, tags or fusion partners need not be part of it.
Biological target: ARM7-9-Flag (Flag-labeled ARM7-9 domain of β-catenin)
Test: pull-down; Flag pull-down with purified recombinant Flag-labeled and His-labeled proteins, followed by immunoblotting; both purified

binding: binds
B1: CUEDC2-His (protein, UniProt Q9H467 1-287)
chain: MELERIVSAALLAFVQTHLPEADLSGLDEVIFSYVLGVLEDLGPSGPSEENFDMEAFTEMMEAYVPGFAHIPRGTIGDMMQKLSGQLSDARNKENLQPQSSGVQGQVPISPEPLQRPEMLKEETRSSAAAAADTQDEATGAEEELLPGVDVLLEVFPTCSVEQAQWVLAKARGDLEEAVQMLVEGKEEGPAAWEGPNQDLPRRLRGPQKDELKSFILQKYMMVDSAEDQKIHRPMAPKEAPKKLIRYIDNQVVSTKGERFKDVRNPEAEEMKATYINLKPARKYRFH
